Laboratory results from EP0663912B1, “HETEROCYCLIC ETHER COMPOUNDS THAT ENHANCE COGNITIVE FUNCTION” (ABBOTT LABORATORIES, priority 1992, dated 1994).
Counter-ions that a name gives are not always drawn. At least one compound was matched to its structure with a doubt left.

What was measured:
[1] = Inhibitory (passive) avoidance (IA) test of learning/memory; type: in vivo; details: level of improvement in retention of the avoidance response; dose or dose range in brackets; IP 15 minutes before training; 12 animals per group
From the text: The inhibitory (or sometimes called passive) avoidance (IA) test is a well accepted animal model of learning/memory used to assess the activity of novel cholinergic agonists to enhance cognitive function (Wanibuchi et al., Eur. J. Pharmacol., 1990, 187:479). Animals are placed in the illuminated (12 X 14 X 11 cm) portion of a two-chambered box, from which they enter through a guillotine door to the larger (24 X 13.5 X 12 cm) dark compartment of the box. Entry to the dark compartment is accompanied by a mild (0.5 mA), brief (2 seconds) footshock. Initial latencies to cross are recorded, with an imposed 60 second ceiling. Following a 72 hour retention interval, animals are returned to the illuminated chamber, and latency to return to the dark compartment is again recorded, with a ceiling of 180 seconds. No footshock is administered on the test day.
Twelve animals were used in each group.

CD1 mice = test: Mouse elevated plus-maze (EPM) test of anxiolytic activity; type: in vivo; details: level of increase in time spent in the open arms; dose or dose range in brackets; given 15 minutes before 5 minute test
From the text: The mouse elevated plus-maze is a conflict test that probes anxiolytic activity of test compounds (Lister, Psychopharmacology, 1987, 92:180). It is based on the fact that exposure of mice to an elevated open arm leads to an avoidance response considerably stronger than that evoked by exposure to an enclosed arm.
The apparatus required to perform this test is made of plywood and consists of two open arms (17 X 8 cm) and two enclosed arms (17 X 8 X 15 cm) extending from a central platform (8 X 8 cm). It is mounted on a plywood base rising 39 cm above the floor. Mice are released on the central platform and the time spent in the open and enclosed arms is recorded during a 5 minute test period. The test compounds were administered to CD1 mice 15 minutes before the test. […]

In the case of `CN1CCC[C@H]1COc1ccc(Cl)nn1` [Example 12, 2-(1-Methyl-2-(S)-pyrrolidinylmethyloxy)-6-chloropyridazine fumarate], the IA [1] is reported as “NE [0.062- 1.9]” and the EPM (CD1 mice) is reported as “NE [0.019- 1.9]”.
